In PubChem BioAssay AID1487 (National Center for Advancing Translational Sciences (NCATS), 2009):
The list shows a part of the results. These are further read-outs of the screen, such as a control signal, another cell line or another target. No call is given for them. The list favours compounds with an active or inconclusive main result. Words in brackets tell the shape of the fitted curve; partial curves, single points and poor fits give uncertain potencies.

Assay: qHTS Assay for Modulators of Lamin A Splicing
Conditions: HeLa LMNA splicing GFP/RFP minigene ratio, 48 h
Method in brief: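 Read-out is the ratio of GFP to DsRed2 object intensity, acquired by 488 nm laser-scanning cytometry on HeLa lamin A-EGFP minigene reporter cells. Compound incubation 48 hrs at 37 °C in Opti-MEM with 2% FBS; DMSO 0.5% final.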

[1] = measured here: GFP splicing reporter channel
[2] = measured here: RFP viability control channel

Structure (SMILES) | AC50 [1] | AC50 [2]
CC(=O)N=Nc1[nH]c(N)c2ccccc12 | 0.00355 µM [falling, full curve, poor fit] | 
COc1cccc(CNc2ccccc2O)c1OCc1ccccc1F | 0.0447 µM [falling, full curve, poor fit] | 0.0282 µM [falling, full curve, poor fit]
Oc1c(C(Nc2ccccn2)c2cccnc2)cc(Cl)c2cccnc12 (stereo not given) | 17.8 µM [rising, single point] | 15.8 µM [rising, partial curve]
COc1ccc(C(=O)N2CCN(c3nc4c(C)c(Cl)ccc4s3)CC2)c(OC)c1 |  | 11.2 µM [rising, partial curve, poor fit]
CN1CCN(S(=O)(=O)c2cccc(C(=O)Nc3nc(-c4ccccc4)cs3)c2)CC1 | 35.5 µM [rising, single point] | 35.5 µM [rising, single point]
CCOc1ccc(NC(=O)CN(C)S(=O)(=O)c2ccc3[nH]c4c(c3c2)CCCC4)cc1 | 7.94 µM [falling, partial curve] | 0.891 µM [falling, full curve, poor fit]
Cc1cccc(C2c3[nH]c4ccccc4c3CCN2C(=O)c2cc(-c3cccn3C)n[nH]2)n1 (stereo not given) | 35.5 µM [rising, partial curve] | 35.5 µM [rising, partial curve]
COc1cc(NC(=S)NCCC(c2ccccc2)c2ccccc2)cc(OC)c1 | 35.5 µM [rising, single point] | 35.5 µM [rising, single point]
O=C(c1cccc(F)c1)N1CCN(c2cc(N3CCCCC3)c(F)cc2[N+](=O)[O-])CC1 |  | 14.1 µM [rising, single point]
Cc1c(C(=O)Nc2ccc(-c3nnc4n3CCCCC4)cc2)oc2ccc(Br)cc12 | 7.94 µM [rising, partial curve, poor fit] | 11.2 µM [rising, partial curve]
O=c1[nH]c2cc3c(cc2cc1CN(CCCO)C(=S)NCc1ccco1)OCO3 |  | 11.2 µM [falling, single point]
COc1cc(OC)c(OC)cc1/C=C/c1nc2ccccc2c(=O)n1-c1ccc(Br)c(C)c1 |  | 11.2 µM [rising, partial curve, poor fit]
CN(NC(=O)c1ccccc1)C1=NS(=O)(=O)c2ccccc21 |  | 0.0112 µM [falling, full curve, poor fit]
Cc1ccccc1CN1CCN(CC(=O)NCc2ccc3c(c2)OCO3)C1=O | 10 µM [rising, partial curve, poor fit] | 7.94 µM [rising, partial curve, poor fit]
C/C(=N\NC(=O)c1ccc([N+](=O)[O-])cc1)c1cc2ccccc2oc1=O |  | 17.8 µM [rising, single point]
O=C(Oc1ccc(-n2cnnn2)cc1)c1ccco1 | 2.51 µM [falling, partial curve] | 3.16 µM [falling, partial curve]
O=C(COC(=O)c1c2c(nc3ccccc13)CCCCC2)NCc1ccc2c(c1)OCO2 |  | 14.1 µM [rising, partial curve]
CCCN1CCN(CCCNC(=O)Cn2c(-c3cccs3)cc3cc(Cl)ccc32)CC1 | 35.5 µM [falling, single point] | 
O=c1c(Cc2ccc(Cl)cc2)c(O)ccn1Cc1cccc(Cl)c1 |  | 35.5 µM [rising, single point]
Cc1ccc2[nH]c3c(=O)n(CCc4cnc[nH]4)cnc3c2c1 | 0.0794 µM [rising, full curve, poor fit] | 
C[C@@H](Oc1ccc(Oc2cnc3ccc(Cl)cc3n2)cc1)C(=O)O | 2.51 µM [falling, full curve] | 
O=C(Nc1ccc(F)c([N+](=O)[O-])c1)c1cccs1 | 35.5 µM [falling, single point] | 
CCC(c1nnnn1CCOC)N1CCN(C(=O)c2ccco2)CC1 (stereo not given) | 35.5 µM [falling, single point] | 14.1 µM [falling, partial curve]
O=C(CCS(=O)(=O)c1ccc(Br)cc1)N1CCN(c2ccc(Cl)cc2)CC1 |  | 14.1 µM [rising, single point]
COCCCN1CCN(C2Cc3ccccc3Sc3ccc(Cl)cc32)CC1 (stereo not given) | 11.2 µM [rising, single point] | 15.8 µM [rising, single point]
Cc1ccc(C(=O)N2c3ccccc3CC2C)o1 (stereo not given) | 2.82 µM [falling, full curve] | 15.8 µM [falling, partial curve]
CC(C)OC(=O)C[N+](C)(C)CCN1C(=O)C2C(c3ccccc3)C=CC(c3ccccc3)C2C1=O (stereo not given) |  | 7.08 µM [falling, full curve, poor fit]

Compounds from the list above that contain a nitro group on carbon:
Structure (SMILES) | AC50 [1] | AC50 [2]
O=C(c1cccc(F)c1)N1CCN(c2cc(N3CCCCC3)c(F)cc2[N+](=O)[O-])CC1 |  | 14.1 µM [rising, single point]
C/C(=N\NC(=O)c1ccc([N+](=O)[O-])cc1)c1cc2ccccc2oc1=O |  | 17.8 µM [rising, single point]
O=C(Nc1ccc(F)c([N+](=O)[O-])c1)c1cccs1 | 35.5 µM [falling, single point] | 

(continued)

Structure (SMILES) | AC50 [1] | AC50 [2]
Cc1sc2ncn(CCn3cnc4sc(C)c(C)c4c3=O)c(=O)c2c1C |  | 7.94 µM [rising, partial curve]
O=S(=O)(c1ccccc1)N1CCN(S(=O)(=O)N2CCCCC2)CC1 | 1.58 µM [falling, partial curve] | 1.26 µM [falling, partial curve]
CC(Oc1ccccc1Br)C(=O)N1CCc2ccccc21 (stereo not given) |  | 31.6 µM [rising, single point]
CCOC(=O)Cc1ccc(NC(=O)c2ccc(C(C)(C)C)cc2)cc1 | 15.8 µM [rising, partial curve] | 11.2 µM [rising, partial curve]
Cc1cccc(C(=O)N/N=C/c2cc(Br)c(Br)o2)c1 | 20 µM [rising, single point] | 14.1 µM [rising, single point]
CCCN(CCC)C(=O)CSc1nnc2cc(C)c3ccccc3n12 | 2 µM [rising, full curve, poor fit] | 
CCCCOC(=O)Sc1nc2ccccc2o1 |  | 11.2 µM [rising, partial curve, poor fit]
CCSc1nnc(NC(=O)CSc2nccn2-c2cc(C)cc(C)c2)s1 |  | 17.8 µM [rising, single point]
O=C1[C@@H]2[C@@H]3C[C@@H]([C@H]4ON=C(c5ccc(Cl)cc5)[C@@H]34)[C@@H]2C(=O)N1c1ccc2c(c1)OCO2 |  | 11.2 µM [rising, single point]
O=C(/C=C/c1ccc(Cl)cc1)Nc1nc(-c2cccs2)ns1 |  | 25.1 µM [falling, single point]
Cc1ccc(C(=O)NCC(=O)OC(C)C(=O)Nc2ccc(N(C)C)cc2)s1 (stereo not given) | 0.02 µM [falling, full curve, poor fit] | 0.00891 µM [falling, full curve, poor fit]
Cn1c(S(=O)(=O)Cc2ccc(Cl)cc2)nc2ccccc21 | 0.0447 µM [falling, partial curve, poor fit] | 
CC(=O)N1CCCc2cc(S(=O)(=O)N(Cc3ccccc3)C(C)C)ccc21 |  | 1 µM [rising, full curve]
CC(C)CCNC(=O)C(CC(C)C)N(Cc1ccc2c(c1)OCO2)C(=O)c1snc(C(N)=O)c1N (stereo not given) | 35.5 µM [rising, single point] | 
Cc1ccc(NC(=O)N(CCCN2CCOCC2)Cc2cc3cc4c(cc3[nH]c2=O)OCO4)cc1 |  | 22.4 µM [rising, single point]
CC(C)(C)c1ccc(Cn2nnc3c(=O)[nH]c(C4CCCN(C(=O)Cc5cccs5)C4)nc32)cc1 (stereo not given) | 25.1 µM [falling, single point] | 25.1 µM [falling, partial curve]
Clc1ccc(OCc2nnc(SCc3nnc(-c4ccccc4)o3)o2)c(Cl)c1 | 35.5 µM [rising, single point] | 0.1 µM [falling, full curve, poor fit]
COc1cc(/C=N/N=C2/NC(=O)C(CC(=O)O)S2)ccc1OCc1cccc(Cl)c1 (stereo not given) | 35.5 µM [falling, single point] | 
Cc1cc(Cl)ccc1Oc1ccc(C(N)=O)cc1[N+](=O)[O-] | 11.2 µM [rising, partial curve] | 15.8 µM [rising, partial curve]
c1ccc(-c2noc(-c3ccc4ccccc4c3)n2)nc1 |  | 2.51 µM [rising, single point]
COC(=O)C1=C(C(=O)OC)[C@@H]2N(C)c3ccccc3[C@@]23C[C@@H](C(=O)OC)N(C(=O)CC(C)C)C3=N1 | 5.62 µM [falling, partial curve, poor fit] | 0.891 µM [falling, partial curve, poor fit]
Cc1cccc(NC(=S)NNC(=O)c2ccccc2OC(F)F)c1 |  | 12.6 µM [rising, single point]
Cc1cccc(S(=O)(=O)Nc2ccc(-c3nc4ccc(C)cc4s3)cc2)c1 | 17.8 µM [rising, single point] | 35.5 µM [rising, single point]
CCOP(=O)(OCC)C(NC(=O)Nc1ccc(C)cc1)C(N)=O (stereo not given) | 0.00631 µM [rising, full curve, poor fit] | 
Cn1c(C(C#N)C(=O)c2ccco2)nc2ccccc21 (stereo not given) |  | 0.00447 µM [falling, full curve, poor fit]
Cc1nn(C)cc1S(=O)(=O)Nc1ccc2c(c1)OCCO2 | 11.2 µM [rising, single point] | 
COc1ccccc1CNc1ncnc2cc(Cl)ccc12 | 5.62 µM [falling, single point] | 
